According to PubChem BioAssay AID196 (DTP/NCI, 2004):
The list is a part of this screen's results and no random one: it gathers some chemical classes. Not every dose and run of a compound is shown. T/C: endpoint of the treated group in % of that of the vehicle group. For survival time, this PubChem deposit counts one and a half times the control or more as active, and values a quarter to a half above the control carry no call in these data; other NCI protocols may use other cut-offs. Schedules are NCI's codes, read here as Q, the interval in days (D) or hours (H), X, the number of doses. Some entries show no survivor count and are marked so; the dose need not have been tolerated. Some doses were run more than once; the values are given in rising order.

System: BDF1 mice, intracerebral B16 melanoma, median survival T/C
Experiment: NCI In Vivo Anticancer Drug Screen. Data for tumor model B16 Melanoma (intracerebral) in B6D2F1 (BDF1) mice
Settings: T/C endpoint: median survival time, schedule: Q01DX005 (ip), vehicle: saline, higher T/C = longer survival
Description: The antitumor activity of compounds was measured in mice bearing transplantable tumors. Survival or tumor size were measured and the results are expressed as the measurement made in the treated group (T) divided by the measurement made in the vehicle treated control group (C). The tumor model used in this assay is B16 Melanoma (intracerebral) in B6D2F1 (BDF1) mice

SMILES: CC(=O)OCC12CCC(C)=CC1OC1C(O)C(OC(C)=O)C2(C)C12CO2 (stereo not drawn)
- T/C (dose: 2.0 mg/kg/injection): 102 [survivor count not shown] and 126 % of control [survivor count not shown]
- T/C (dose: 4.0 mg/kg/injection): 118 [survivor count not shown] and 131 % of control [survivor count not shown]
- T/C (dose: 8.0 mg/kg/injection): 124 % of control [survivor count not shown]
